Taken from: PubChem BioAssay AID1259405 (NCATS, 2018)

Assay: 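Silenced genes that increase secreted GFP made by CHO cells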 (primary screen)
System: Chinese hamster CHO-K1 ovary cells with stable secreted eGFP expression
Reagent: single siRNA against mouse genes, 0.8 pmol siRNA per well (2 µl of 400 nM stock)
Duration: 3 days
Detection: 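Per-well intracellular GFP measured by laser scanning cytometry, plus viability from ATP luminescence, each relative to plate median of non-targeting control wells, in %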
Reading the numbers: GFP, % of control: higher = more GFP per well, higher productivity; viability (ATP), % of control: higher = more viable cells (more ATP)
Call rule: 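Called active when intracellular GFP, relative to negative control, is at or above 120%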
Shown is one part, drawn at random, of about 50,000 reagents. Over the whole deposit, about 4,000 (8%) are marked active. 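Mouse siRNA library applied to hamster cells; one well for each siRNA.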 Reagents against one gene are numbered here. Reagent sequences are not shown.

| gene symbol | reagent no. | GFP, % of control | viability (ATP), % of control | activity call |
| --- | --- | --- | --- | --- |
| Lrrc58 (leucine rich repeat containing 58) | 1 | 83 | 109 | inactive |
| Lrrc58 (leucine rich repeat containing 58) | 2 | 59.3 | 77.4 | inactive |
| Lrrc58 (leucine rich repeat containing 58) | 3 | 131 | 111 | active |
| Csn1s2a (casein alpha s2-like A) | 1 | 62.5 | 63.3 | inactive |
| Csn1s2a (casein alpha s2-like A) | 2 | 81.8 | 46.3 | inactive |
| Csn1s2a (casein alpha s2-like A) | 3 | 85.9 | 99.4 | inactive |
| Tmem42 (transmembrane protein 42) | 1 | 94 | 87.8 | inactive |
| Tmem42 (transmembrane protein 42) | 2 | 94.6 | 96.9 | inactive |
| Tmem42 (transmembrane protein 42) | 3 | 101 | 91.1 | inactive |
| Tgfb1i1 (transforming growth factor beta 1 induced transcript 1) | 1 | 64.6 | 49.8 | inactive |
| Tgfb1i1 (transforming growth factor beta 1 induced transcript 1) | 2 | 51.7 | 63.9 | inactive |
| Clec4a1 (C-type lectin domain family 4, member a1) | 1 | 54.7 | 53.7 | inactive |
| Clec4a1 (C-type lectin domain family 4, member a1) | 2 | 51.9 | 57.6 | inactive |
| Clec4a1 (C-type lectin domain family 4, member a1) | 3 | 58.5 | 48.7 | inactive |
| 9130401M01Rik (RIKEN cDNA 9130401M01 gene) | 1 | 134 | 103 | active |
| 9130401M01Rik (RIKEN cDNA 9130401M01 gene) | 2 | 73.1 | 75.5 | inactive |
| 9130401M01Rik (RIKEN cDNA 9130401M01 gene) | 3 | 95.7 | 107 | inactive |
| Tmem154 (transmembrane protein 154) | 1 | 52.2 | 48 | inactive |
| Tmem154 (transmembrane protein 154) | 2 | 21.1 | 15.2 | inactive |
| Tmem154 (transmembrane protein 154) | 3 | 66.9 | 86.5 | inactive |
| Rnf8 (ring finger protein 8) | 1 | 51.5 | 73.2 | inactive |
| Rnf8 (ring finger protein 8) | 2 | 35.6 | 38.8 | inactive |
| Rnf8 (ring finger protein 8) | 3 | 53.9 | 72.7 | inactive |
| Inka2 (inka box actin regulator 2) | 1 | 36.4 | 28.8 | inactive |
| Inka2 (inka box actin regulator 2) | 2 | 96.9 | 111 | inactive |
| Inka2 (inka box actin regulator 2) | 3 | 119 | 134 | inactive |
| Txndc11 (thioredoxin domain containing 11) | 1 | 43.4 | 109 | inactive |
| Txndc11 (thioredoxin domain containing 11) | 2 | 62.5 | 69.3 | inactive |
| Txndc11 (thioredoxin domain containing 11) | 3 | 56.4 | 61 | inactive |
| Evx1 (even-skipped homeobox 1) | 1 | 50.2 | 74.4 | inactive |
| Evx1 (even-skipped homeobox 1) | 2 | 80.3 | 67.1 | inactive |
| Evx1 (even-skipped homeobox 1) | 3 | 127 | 117 | active |
| Mrps34 (mitochondrial ribosomal protein S34) | 1 | 97.6 | 79.1 | inactive |
| Mrps34 (mitochondrial ribosomal protein S34) | 2 | 24.2 | 27.3 | inactive |
| Mrps34 (mitochondrial ribosomal protein S34) | 3 | 93.7 | 84.3 | inactive |
| Fgd4 (FYVE, RhoGEF and PH domain containing 4) | 1 | 63.5 | 106 | inactive |
| Fgd4 (FYVE, RhoGEF and PH domain containing 4) | 2 | 57.1 | 63.9 | inactive |
| Fgd4 (FYVE, RhoGEF and PH domain containing 4) | 3 | 79.6 | 51.1 | inactive |
| Pcdhga5 (protocadherin gamma subfamily A, 5) | 1 | 93.9 | 88.8 | inactive |
| Pcdhga5 (protocadherin gamma subfamily A, 5) | 2 | 49.5 | 67.2 | inactive |
| Pcdhga5 (protocadherin gamma subfamily A, 5) | 3 | 70.2 | 51.9 | inactive |
| Gm5114 (predicted gene 5114) | 1 | 40.3 | 46.3 | inactive |
| Gm5114 (predicted gene 5114) | 2 | 53.2 | 65.8 | inactive |
| Gm5114 (predicted gene 5114) | 3 | 42.5 | 56.4 | inactive |
| Or52n4 (olfactory receptor family 52 subfamily N member 4) | 1 | 47.5 | 58.2 | inactive |
| Or52n4 (olfactory receptor family 52 subfamily N member 4) | 2 | 114 | 38.5 | inactive |
| Or52n4 (olfactory receptor family 52 subfamily N member 4) | 3 | 73.4 | 60.7 | inactive |
| Kcmf1 (potassium channel modulatory factor 1) | 1 | 54.7 | 54.3 | inactive |
| Kcmf1 (potassium channel modulatory factor 1) | 2 | 83.3 | 66.3 | inactive |
| Kcmf1 (potassium channel modulatory factor 1) | 3 | 105 | 89.3 | inactive |
| Chad (chondroadherin) | 1 | 47.2 | 31.7 | inactive |
| Chad (chondroadherin) | 2 | 68 | 97.5 | inactive |
| Chad (chondroadherin) | 3 | 69.8 | 43.6 | inactive |
| Drd1 (dopamine receptor D1) | 1 | 132 | 90.7 | active |
| Drd1 (dopamine receptor D1) | 2 | 53.3 | 84.9 | inactive |
| Drd1 (dopamine receptor D1) | 3 | 150 | 71.9 | active |
| Ttc29 (tetratricopeptide repeat domain 29) | 1 | 104 | 90 | inactive |
| Ttc29 (tetratricopeptide repeat domain 29) | 2 | 47.3 | 40 | inactive |
| Ttc29 (tetratricopeptide repeat domain 29) | 3 | 95 | 84.2 | inactive |

Reagents listed above called active, once more:
| gene symbol | reagent no. | GFP, % of control | viability (ATP), % of control | activity call |
| --- | --- | --- | --- | --- |
| Lrrc58 (leucine rich repeat containing 58) | 3 | 131 | 111 | active |
| 9130401M01Rik (RIKEN cDNA 9130401M01 gene) | 1 | 134 | 103 | active |
| Evx1 (even-skipped homeobox 1) | 3 | 127 | 117 | active |
| Drd1 (dopamine receptor D1) | 1 | 132 | 90.7 | active |
| Drd1 (dopamine receptor D1) | 3 | 150 | 71.9 | active |
